# No constants are given. Whether binding was seen depends on the method and setting.
# The chains behind the UniProt entries cited, without tags or fusion partners. Residues count along the entry.
# UniProt P37231, residues 231-505: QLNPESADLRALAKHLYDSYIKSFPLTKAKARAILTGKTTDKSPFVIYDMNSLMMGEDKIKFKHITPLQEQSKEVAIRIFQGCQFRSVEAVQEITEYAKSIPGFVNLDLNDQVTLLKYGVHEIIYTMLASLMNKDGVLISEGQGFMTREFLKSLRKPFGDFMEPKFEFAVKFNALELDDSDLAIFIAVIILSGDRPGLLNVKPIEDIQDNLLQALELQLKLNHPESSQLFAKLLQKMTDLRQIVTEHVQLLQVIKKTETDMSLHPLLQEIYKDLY
# Biological target: Human PPARγ-LBD (amino acids 203–477 in isoform 1), amino-terminal His-tagged (human) (UniProt P37231)
# Experiment: FRET or BRET; single-emission TR-FRET (LANCE Ultra); His-tagged LBD (9.5 µL of 400 nM) with Tb cryptate anti-6×His antibody, biotin peptide (5 µL of 1 µM) with ULight-Streptavidin or FITC-Ahx peptide; buffer A (20 mM HEPES pH 7.4, 150 mM NaCl, 1 mM EDTA, 1 mM DTT, 0.005% Tween 20, 0.1% fatty acid-free BSA); room temperature, 2 h; without agonist (vehicle 1% DMSO); both purified
binder,measurement,value
"PVSSMAGNTKNHPMLMNLLKDNPAQ (biotin on the N-terminus (printed biotin-PVSSM...)) [TRAP220 coactivator peptide, biotin-labeled (AAs 631–655)]",binding,no binding (condition: without pioglitazone)
